From PubChem BioAssay AID2685 (National Center for Advancing Translational Sciences (NCATS), 2010)
The list shows a part of the results. Shown are side measurements of this screen, not its main read-out; they come without a call. Most of these compounds were active or inconclusive in the main read-out, so they are no random draw. Words in brackets tell the shape of the fitted curve; partial curves, single points and poor fits give uncertain potencies.

Test: qHTS Assay for Lipid Storage Modulators in Drosophila S3 Cells;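 for cell number change: cells counted by Cell Tracker Red CMTPX staining in the red channel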
Conditions: BODIPY lipid droplet fluorescence, 18-24 h; for cell number change: measured here: cell count max response, cells fed with added oleic acid
Procedure, shortened: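 Drosophila S3 cells loaded with oleic acid (400 uM, as added) and compounds at several concentrations; lipid droplets imaged by 488-nm laser-scanning cytometry, 500–530 nm intensity and object ratio to cell channel. Percent activity normalized to 20 uM Triacsin C.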

[1] = measured here: lipid fluorescence (Fed channel) AC50, cells fed with added oleic acid
[2] = measured here: cell number channel AC50, cells fed with added oleic acid

Row | Compound | cell number change | AC50 [1] | AC50 [2]
1 | CSC(=Nc1ccc(Cl)cc1)N[n+]1ccccc1 | -26.8% | 1.84 µM [falling, full curve, poor fit] | –
2 | CC1CC(C)CN(C(=O)C2CCN(S(=O)(=O)N3CCC4(CC3)OCCO4)CC2)C1 (stereo unspecified) | -9.17% | 0.116 µM [falling, full curve, poor fit] | –
3 | COc1cccc(-n2c(=O)c3ccccc3n(CC(=O)NCC3CCCO3)c2=O)c1 (stereo unspecified) | -11.3% | – | –
4 | Cc1cccc(C2=NC(C(F)(F)F)(C(F)(F)F)c3c(n(-c4ccc(F)cc4)c(=O)[nH]c3=O)N2)c1 | 11.9% | 32.6 µM [rising, single point] | –
5 | Cc1cccc2c1N(C(=O)c1ccco1)C(C)(C)c1ssc(=S)c1-2 | – | 2.06 µM [falling, full curve, poor fit] | –
6 | CCn1c(CNC(=O)C23CC4CC(CC(C4)C2)C3)nnc1SCC(=O)Nc1nnc(C)s1 | 0.623% | 18.4 µM [rising, single point] | –
7 | Cc1nnc(SCCN2CCOCC2)n1-c1cccc(Cl)c1 | -2% | 16.4 µM [falling, partial curve, poor fit] | –
8 | Cc1ccc2c(c1)c1c(n2CC(O)Cn2c(C)nc3ccccc32)/C(=N\O)CCC1 (stereo unspecified) | -97.3% | – | 29.1 µM [falling, single point]
9 | COc1ccccc1CNS(=O)(=O)CC12CCC(CC1=O)C2(C)C (stereo unspecified) | 5.98% | 8.2 µM [rising, partial curve] | –
10 | COc1ccccc1CNC(=O)CCS(=O)(=O)c1ccc2c(c1)CCN2C(C)=O | 8.4% | 6.51 µM [rising, single point] | –
11 | Cc1cccc(NC(=O)N2C3CCCC2CC(NC(=O)C(C)(C)C)C3)c1 (stereo unspecified) | – | – | 6.51 µM [falling, partial curve, poor fit]
12 | S=c1[nH]c2ccc(Cl)cc2s1 | -39.1% | 0.116 µM [falling, full curve] | 0.146 µM [falling, full curve]
13 | CC(C)COC(=O)n1c(=O)oc2cc(S(=O)(=O)N3CCCCC3)ccc21 | – | 5.8 µM [falling, full curve, poor fit] | –
14 | Cc1nn(-c2ccccc2)c(C)c1NC(=O)COC(=O)c1ccc(O)cc1O | 17% | – | 6.51 µM [rising, partial curve]
15 | O=C(CN1CCN(c2cnn(-c3ccccc3)c(=O)c2Cl)CC1)NC1CCS(=O)(=O)C1 (stereo unspecified) | – | 0.00461 µM [rising, full curve, poor fit] | 6.51 µM [falling, partial curve, poor fit]
16 | CCn1c2ccccc2c2cc(/C=N/NC(=O)c3cccc(C)c3)ccc21 | -17.6% | 0.58 µM [rising, full curve] | –
17 | COc1ccc(N2CC(C(=O)Nc3nnc(Cc4ccccc4)s3)CC2=O)cc1 (stereo unspecified) | -2.86% | 6.51 µM [falling, single point] | –
18 | COCCCNC(=O)Cn1ccc(NC(=O)OCc2ccccc2)nc1=O | 14.3% | 29.1 µM [rising, single point] | –
19 | CCn1nc(C)c(/C=N/NC(=O)Cn2nc(C)cc2C)c1C | 126% | 7.31 µM [rising, partial curve] | 29.1 µM [rising, single point]

Row | Compound | cell number change | AC50 [1] | AC50 [2]
20 | Cc1ccccc1C(=O)N1CCC(C(=O)Nc2cccc(S(=O)(=O)N3CCCCC3)c2)CC1 | -41.4% | 16.4 µM [falling, partial curve] | 9.2 µM [falling, partial curve, poor fit]
21 | Cc1ccc(CNC(=O)c2ccc3c(=O)n(CCCN4CCCC4=O)c(=S)[nH]c3c2)cc1 | 80.5% | – | 18.4 µM [rising, single point]
22 | CCOC(=O)N1CCN(C(=O)c2cc(COc3ccc(Cl)cc3OC)on2)CC1 | -32% | – | 10.3 µM [falling, partial curve, poor fit]
23 | Brc1ccc2ncnc(NCc3ccccc3)c2c1 | -19.1% | 3.26 µM [rising, partial curve] | –
24 | CCC(C)(NC=O)C(=O)Nc1c(C)cccc1C (stereo unspecified) | 4.03% | 0.82 µM [rising, full curve, poor fit] | –
25 | CC(=O)Nc1ccc(NS(=O)(=O)c2cccc3ccccc23)cc1 | 75.4% | – | 1.46 µM [rising, full curve]
26 | CC(NC(=O)CC1Sc2ccccc2NC1=O)c1ccccc1 (stereo unspecified) | 10.6% | – | 6.51 µM [rising, single point]
27 | COc1cccc(CN(C)C(=O)c2cc(-c3ccc(F)cc3)nc3ccccc23)c1 | -12.4% | 18.4 µM [falling, single point] | –
28 | O=C(CSc1ccc(Cl)cc1)N1CCCC1 | -47.8% | 16.4 µM [falling, single point] | 29.1 µM [falling, single point]
29 | O=C1CC(/C=C/c2ccncc2)=Nc2ccccc2N1 | – | – | 6.51 µM [rising, single point]
30 | CCOC(=O)C1(Cc2ccc(Cl)cc2)CCN(C(=O)c2cscn2)CC1 | -15.8% | 0.0058 µM [falling, full curve, poor fit] | –
31 | COCc1cc(N2CCOCC2)nc(SCc2ccc(Cl)cc2)n1 | – | 0.058 µM [falling, full curve, poor fit] | –
32 | CC1CC(C)CN(C(=O)COC(=O)c2cc(S(=O)(=O)N3CCOCC3)ccc2F)C1 (stereo unspecified) | 100% | – | 14.6 µM [rising, partial curve]
33 | CC1CCN(S(=O)(=O)c2cccc(C(=O)N3CCN(c4ccc(F)cc4)CC3)c2)CC1 | -20.8% | 29.1 µM [falling, single point] | –
34 | Cc1nc(C)c(C(=O)NNS(=O)(=O)c2ccc3ccccc3c2)s1 | -25.7% | 25.9 µM [falling, partial curve] | 5.17 µM [rising, single point]
35 | O=C(NCCCn1ccnc1)C(F)(F)C(F)(F)C(=O)NCCCn1ccnc1 | -18.4% | – | –
36 | CC(=O)Nc1cccc(NC(=O)CSc2nc(=O)n(CCN3CCOCC3)c3c2CCC3)c1 | – | 16.4 µM [rising, single point] | 2.31 µM [rising, partial curve]
37 | COc1ccc(N2CCOCC2)c(NC(=O)c2cccs2)c1 | -11.9% | 14.6 µM [falling, single point] | –
38 | COc1ccc(N2CCCn3c2nc2c3c(=O)n(Cc3ccc(C)cc3)c(=O)n2C)c(OC)c1 | -21% | 2.06 µM [falling, partial curve, poor fit] | –

Individual results from the results shown.
cell number change with CC1CC(C)CN(C(=O)COC(=O)c2cc(S(=O)(=O)N3CCOCC3)ccc2F)C1 (stereo unspecified) is entered as 100%
cell number change with O=C(NCCCn1ccnc1)C(F)(F)C(F)(F)C(=O)NCCCn1ccnc1 is entered as -18.4%

Later entries

Row | Compound | cell number change | AC50 [1] | AC50 [2]
39 | Cc1ccc2nc(SCC(=O)Nc3ccc(F)cc3F)nc(=O)n2c1 | 0.659% | 0.058 µM [falling, full curve, poor fit] | –
40 | CCOC(=O)c1cc(-c2ccccc2)n(CCC(=O)N2CCN(c3ccccc3OC)CC2)c1C | 17.3% | 2.59 µM [rising, partial curve] | 3.66 µM [rising, partial curve]
41 | CCC(C(=O)NCc1ccc(C)o1)n1nc(C)c2c(C)n(-c3ccccc3)nc2c1=O (stereo unspecified) | -13.6% | 29.1 µM [falling, single point] | –
42 | CCCC(=O)Oc1ccc(C2NC(=O)c3ccccc3O2)cc1OC (stereo unspecified) | 21.2% | 0.517 µM [rising, single point] | 0.461 µM [rising, full curve, poor fit]
43 | CC(=O)Nc1ccccc1NC(=O)C/C(C)=N/NC(=O)C(=O)N1CCCCC1 | -8.57% | 6.51 µM [falling, single point] | –
44 | COc1ccc(C(=O)N2CCC(N3CCN(c4ccccc4)CC3)CC2)cc1OC | 17.5% | 18.4 µM [falling, partial curve] | –
45 | O=C1c2cccc(OCC(=O)N3CCCc4ccccc43)c2CCN1Cc1ccccc1 | 4.81% | 0.82 µM [rising, single point] | –
46 | Cc1ccc(C)c(N2N=C(C(=O)N(CC(C)C)c3c(N)n(Cc4ccccc4)c(=O)[nH]c3=O)CCC2=O)c1 | 10.8% | – | –
47 | CC(C)c1ccc(/C=N/NC(=O)C2CCCC2)cc1 | – | 29.1 µM [falling, single point] | –
48 | CCC(=Nc1ccc(N)cc1)C1=C(O)C(C(=O)OC)C(C)(C)CC1=O (stereo unspecified) | 0.559% | 0.082 µM [rising, full curve, poor fit] | –
49 | CC(=O)Nc1ccc(S(=O)(=O)N2CCN(C(=O)c3ncoc3-c3ccccc3F)CC2)cc1 | 5% | – | –
50 | CCC1CO/C(=C(\C(Cl)=C(Cl)Cl)[N+](=O)[O-])N1 (stereo unspecified) | 37.9% | 29.1 µM [rising, single point] | 29.1 µM [rising, single point]
51 | O=C(NCC1CCCO1)C1CCN(S(=O)(=O)c2ccc(Br)cc2)CC1 (stereo unspecified) | -0.293% | 1.64 µM [falling, partial curve] | –
52 | O=S(=O)(c1cc(Cl)ccc1Cl)n1ccnc1 | -58.8% | 0.731 µM [falling, full curve] | 25.9 µM [falling, partial curve, poor fit]
53 | CSc1ccc(CNCC2CCCO2)cc1 (stereo unspecified) | 0.365% | – | –
54 | O=C(N/N=C/c1cccc([N+](=O)[O-])c1)c1cc(-c2ccc3c(c2)OCO3)n[nH]1 | -17% | 0.58 µM [falling, single point] | –
55 | CCC(CCC(=O)Nc1ccc(S(N)(=O)=O)cc1)C(=O)O (stereo unspecified) | -12.5% | 1.64 µM [falling, full curve] | –
56 | COc1cc(/C=N/NC(=O)COc2ccccc2[N+](=O)[O-])ccc1OC(=O)c1ccco1 | 29.6% | – | –
57 | Cc1cc(-c2ccco2)n(-c2ccccc2)n1 | -12.3% | 0.731 µM [falling, single point] | –
